The values below come from article PMC8315023.

The chains behind the UniProt entries cited, without tags or fusion partners.
UniProt P01106: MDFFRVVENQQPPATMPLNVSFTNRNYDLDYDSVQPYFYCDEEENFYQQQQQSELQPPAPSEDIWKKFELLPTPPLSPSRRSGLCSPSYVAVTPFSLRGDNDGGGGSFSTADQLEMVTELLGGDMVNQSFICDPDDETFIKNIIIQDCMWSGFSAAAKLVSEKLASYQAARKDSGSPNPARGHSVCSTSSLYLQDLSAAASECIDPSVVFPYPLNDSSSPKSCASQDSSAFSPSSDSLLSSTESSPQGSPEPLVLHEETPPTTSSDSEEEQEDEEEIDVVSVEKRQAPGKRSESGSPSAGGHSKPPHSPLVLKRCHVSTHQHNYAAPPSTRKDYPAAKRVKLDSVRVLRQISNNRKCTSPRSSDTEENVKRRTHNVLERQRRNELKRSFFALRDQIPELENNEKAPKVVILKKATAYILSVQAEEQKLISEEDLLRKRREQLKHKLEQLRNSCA

This assay addresses sequestosome 1 (SQSTM1, best known as p62) (human (endogenous in VSMCs)) (UniProt Q13501). The assay can be described thus: co-IP; whole-cell lysates of VSMCs (cells also treated with celastrol, with or without CQ) immunoprecipitated with anti-c-MYC or anti-p62 antibody and blotted with anti-p62 or anti-c-MYC antibody.

Results are given in words; binding and its absence hold for the method and conditions named. Binding seen in cells or lysates may run through a third protein. Some results given as binding are weak or reduced against the parent protein; the word gives no strength.

Turning to c-MYC (from UniProt P01106 1-454), the binding entry is given as “binds”.
